Measured values published in patent publication US20190008837A1, “OPHTHALMIC COMPOSITIONS AND ASSOCIATED METHODS” (University of Utah Research Foundation, priority 2016, published 2019).
At least one structure is not confirmed: it was looked up by name or label, or the drawing left a doubt.

What was measured:
[1] = system: cornea neuron fibers of scratched corneas; experiment: Cornea scratch model, cornea neuron regeneration on flatmounts (Example 1); assay type: in vivo, mice; details: eye drops 3 times per day for 5 days, corneas harvested on the 7th day, beta III tubulin staining
Procedure: Nine mice were divided into three treatment groups having three mice each. The corneas of each of the mice in each of the groups were scratched. The control group was administered a standard blank (e.g. pacebo) composition. The first treatment group received pergolide. The second treatment group received cabergoline. Each of the eye drops was applied 3 times per day for 5 days. The corneas were harvested on the 7th day. The corneas were then fixed in acetone for 1 hour at room temperature and then blocked in 3% BSA for 1 hour. The cornea flatmounts were stained with primary antibody, anti-beta III tubulin antibody (rabbit polyclonal, ab18207) at 1:200 in 3% BSA blocking buffer overnight at 4° C. After washing 3 times for 10 minutes, each of the cornea flatmounts were incubated with secondary antibody (goat anti rabbit, Invitrogen Alexa Fluor 555) at 1:200 in 3% BSA for 1 hour at room temperature. The flatmounts were again washed 3 times for 10 minutes each. Images of the cornea neuron fibers were taken and analyzed under EVOS microscopy.

[2] = system: scratched corneas of balb/c mice; experiment: Cornea nerve regeneration, cornea scratch model, two doses (Example 4); assay type: in vivo; details: 3 times per day for 1 week, n=6
[3] = system: GDNF; experiment: GDNF expression in mice with induced corneal scratches; assay type: in vivo
[4] = system: scratched corneas of STZ-induced diabetic mice; experiment: Cornea nerve regeneration in STZ-induced diabetic mice (Example 3); assay type: in vivo; details: eyedrops 3 times per day for 5 days, flatmounts harvested 2 days later; N=3, P=0.013
[5] = system: corneal tissue with induced corneal scratches; experiment: Rate of corneal healing after induced corneal scratches (Example 2); assay type: in vivo, Balb/c mice; details: topical eye drops 2 times per day
[6] = system: nerve growth factor (NGF); experiment: NGF expression in mice with induced corneal scratches; assay type: in vivo; details: western blot at 24 hours after treatment

CCCN1C[C@H](CSC)C[C@@H]2c3cccc4[nH]cc(c34)C[C@H]21 [pergolide, (6aR,9R,10aR)-9-(methylthiomethyl)-7-propyl-4,6,6a,7,8,9,10,10a-octahydroindolo[4,3-fg]quinolone]
cornea neuron regeneration compared to the blank control group [1]: improved cornea neuron regeneration
corneal nerve regeneration as compared to the blank eyedrop ([2]; 300 μg dose): improved corneal nerve regeneration
corneal nerve regeneration as compared to the blank eyedrop ([2]; 600 μg dose): improved corneal nerve regeneration
corneal nerve regeneration, 600 μg dose compared to the 300 μg dose [2]: greater improvement in corneal nerve regeneration
GDNF expression as compared to blank treated and normal mice [3]: increased GDNF expression
corneal nerve regeneration (percentage of corneal nerve area) compared to blank treated mice [4]: improved corneal nerve regeneration
healing of corneal tissue compared to blank treated mice ([5]; one week of treatment): more rapid healing of corneal tissue
healing of corneal tissue compared to blank treated mice ([5]; two weeks of treatment): more rapid healing of corneal tissue
average corneal nerve areas, one week versus two week treatment ([5]; beta-tubulin staining, ImageJ): no statistical difference between one week and two week treatment periods
expression of NGF as compared to blank treated mice and normal mice [6]: increased expression of NGF
